Measured values as given in article PMC7819943, “Rice protein-binding microarrays: a tool to detect cis-acting elements near promoter regions in rice”.
Some of the results follow.

The sequences below were run against T1, OsSMF1 (Oryza sativa, UniProt Q6ZLB0 1-436) (assay: protein-binding microarray (RPBM); PBS, 2% BSA, 51.3 ng/ul salmon testes DNA, 50 uM zinc acetate, 200 nM TF, 25 C, 1 h; high values mean tight binding). Details: protein: recombinant; tags: N-terminal polyhistidine and DsRed monomer fusion (pET32a); chain copies: 2; label: CyDye5-dUTP incorporated in the synthesized complementary strand; 3' TTTTT single-stranded linker to array surface; dsDNA, one strand shown.
T1 sequence: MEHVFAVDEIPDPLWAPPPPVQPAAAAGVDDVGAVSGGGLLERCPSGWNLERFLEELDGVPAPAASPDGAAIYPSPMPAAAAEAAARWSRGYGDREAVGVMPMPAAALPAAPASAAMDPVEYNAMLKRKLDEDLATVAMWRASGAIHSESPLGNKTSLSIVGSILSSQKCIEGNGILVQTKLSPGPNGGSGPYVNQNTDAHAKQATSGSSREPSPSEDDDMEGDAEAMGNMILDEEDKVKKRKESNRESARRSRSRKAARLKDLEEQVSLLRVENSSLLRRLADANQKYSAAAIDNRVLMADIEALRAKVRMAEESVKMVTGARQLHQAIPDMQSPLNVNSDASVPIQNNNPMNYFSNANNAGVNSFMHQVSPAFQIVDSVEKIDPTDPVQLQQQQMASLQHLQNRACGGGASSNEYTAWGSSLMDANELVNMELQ
In short: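 Transcription factors were made in E. coli BL21-CodonPlus as N-terminal fusions to a polyhistidine tag and DsRed, then purified on Ni–NTA. After primer extension with Cy5-dUTP and blocking with 2% BSA, a custom Agilent array was exposed for 1 h at 25 °C to 200 nM protein in PBS, 2% BSA, salmon testes DNA and 50 µM zinc acetate. Washed arrays were scanned on an Axon 4000B, and the binding signal is per-feature fluorescence intensity in arbitrary units.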

Sequence	binding signal
CACCACGGCCATCTCGTCAGTCAGTGTGACCCATCCGGCCCGGAGTCACCTAGTGCAG	4420 fluorescence intensity (a.u.)
CATGTTATGGAGCCAAGCCCTCCCCGTGACATGGACACGTCGGAGTCACCTAGTGCAG	5350 fluorescence intensity (a.u.)
GAATGGGAAGAGGGAGATGACACGTGGGGCCCACCATATTCGGAGTCACCTAGTGCAG	4040 fluorescence intensity (a.u.)
TTCAAGTCCACATGGTGCTGACGTGAAACTGTCACATACACGGAGTCACCTAGTGCAG	7250 fluorescence intensity (a.u.)
TCTATGCAGTGTTTACAGCGTCACTTATCTTAATTCTCCCCGGAGTCACCTAGTGCAG	4490 fluorescence intensity (a.u.)
CGAGGACGACGTCGTGGTTGTGGTCGTCATGCTTGGGGACCGGAGTCACCTAGTGCAG	7180 fluorescence intensity (a.u.)
TCATTCCAGTTACCATGGAGCTGACGCGTGCACACGCACACGGAGTCACCTAGTGCAG	8490 fluorescence intensity (a.u.)
TCGAATTGTGGTGAACATTGCATTAATCCTCAAGAGCCTTCGGAGTCACCTAGTGCAG	17600 fluorescence intensity (a.u.)
CTGCATTCAGTTTACTCTTCCCTGTCAGCTTCTGAAGACCCGGAGTCACCTAGTGCAG	4470 fluorescence intensity (a.u.)
ATTGTTTGTCGTCTTATAGCATTCAATTCGACAAAGAACCCGGAGTCACCTAGTGCAG	24900 fluorescence intensity (a.u.)
GAGGGTCATGTCTTGGTCGCGGGCTGATGACTTGGAGCCCCGGAGTCACCTAGTGCAG	6360 fluorescence intensity (a.u.)
AAAAGTCCATCTACTGGTGCCGTCACCATCACAGAATACACGGAGTCACCTAGTGCAG	4090 fluorescence intensity (a.u.)
TATTACCACGTAGGCGCCACGTGGCGCCACGTCAGCAAAACGGAGTCACCTAGTGCAG	42100 fluorescence intensity (a.u.)
ATTACTACTATTCAGTACATTTCGTAATTTACAGCTCATCCGGAGTCACCTAGTGCAG	4510 fluorescence intensity (a.u.)
CTCGTCGATGTAGCGCTCCTCCCGTTCCTGGTCTCCAACGCGGAGTCACCTAGTGCAG	3180 fluorescence intensity (a.u.)
CAGTTTCGTCTCGCCGGCGTTGTATTTCCACATCAACGTGCGGAGTCACCTAGTGCAG	3470 fluorescence intensity (a.u.)
TCACGGCCGCTGAAGCCTCTGACACTCCACTGTAGTGTGTCGGAGTCACCTAGTGCAG	3710 fluorescence intensity (a.u.)
GCCACGATGAAGAGAGTCCCAAATCAAATTCTCAACTCTACGGAGTCACCTAGTGCAG	32100 fluorescence intensity (a.u.)
CAAAACGTCAAAAGCAGAAATGAATGGAGTGATCGAGTAGCGGAGTCACCTAGTGCAG	3440 fluorescence intensity (a.u.)
TGCATATACCCCTTCTCCAGGCATAAGTATTGATCCTTCTCGGAGTCACCTAGTGCAG	3300 fluorescence intensity (a.u.)
CGCGTACATCCAACTGAGTTTTCTGCGATGGACGGTGACACGGAGTCACCTAGTGCAG	3920 fluorescence intensity (a.u.)

Look-ups from the list:
binding signal, CATGTTATGGAGCCAAGCCCTCCCCGTGACATGGACACGTCGGAGTCACCTAGTGCAG reads 5350 fluorescence intensity (a.u.)
binding signal, GAGGGTCATGTCTTGGTCGCGGGCTGATGACTTGGAGCCCCGGAGTCACCTAGTGCAG reads 6360 fluorescence intensity (a.u.)
binding signal, TATTACCACGTAGGCGCCACGTGGCGCCACGTCAGCAAAACGGAGTCACCTAGTGCAG reads 42100 fluorescence intensity (a.u.)
binding signal, CGAGGACGACGTCGTGGTTGTGGTCGTCATGCTTGGGGACCGGAGTCACCTAGTGCAG reads 7180 fluorescence intensity (a.u.)
binding signal, GAATGGGAAGAGGGAGATGACACGTGGGGCCCACCATATTCGGAGTCACCTAGTGCAG reads 4040 fluorescence intensity (a.u.)

Later entries

Sequence	binding signal
ACGAAACGCAGCAAGTGTCAACTGACTAGTACTTTGAACACGGAGTCACCTAGTGCAG	3810 fluorescence intensity (a.u.)
AACTATAACTCCAAAATCTTGTATGATATTATTATATATGCGGAGTCACCTAGTGCAG	3320 fluorescence intensity (a.u.)
CAACTCGCTCCCGGGTTTTGAAACCGCGGGACCGTCGTGGCGGAGTCACCTAGTGCAG	3780 fluorescence intensity (a.u.)
TCGATCCGCGCTTTTGTCCACGTCACCAATCCGTGGCAACCGGAGTCACCTAGTGCAG	33100 fluorescence intensity (a.u.)
TATGTTTCTAACCTTGCTTTATCTGTCCTATGGGCCCAGTCGGAGTCACCTAGTGCAG	3140 fluorescence intensity (a.u.)
GCAGCTGGTGGCGCAACGCCACGAGGCGCACCCCGCTGGCCGGAGTCACCTAGTGCAG	3400 fluorescence intensity (a.u.)
GAGGAAATCTTCTTAAGAACTGTGAAATACAACTACATGACGGAGTCACCTAGTGCAG	22500 fluorescence intensity (a.u.)
GTCTGAACTGAAGCAACTATCAAAAGGCAATTAGTAGACGCGGAGTCACCTAGTGCAG	20400 fluorescence intensity (a.u.)
ATTAGACAAGTGACGTGTGGACCCCAGGTCTATATGTCAGCGGAGTCACCTAGTGCAG	10200 fluorescence intensity (a.u.)
CTCCAGCAGCTGCTCGCTCGTCATCACCGCGATGCTGCCGCGGAGTCACCTAGTGCAG	3490 fluorescence intensity (a.u.)
ACGATAGTAGAGTCACTGTAGTGTGTAGATTGCATGGTAGCGGAGTCACCTAGTGCAG	3560 fluorescence intensity (a.u.)
TCTCCTTCCACTGCCACCGCACAAGCAAGGGCAAAGCTTACGGAGTCACCTAGTGCAG	3780 fluorescence intensity (a.u.)
GGCGAGGGCGAACGCCATGACGAGGCAGGGGATGCCGAAGCGGAGTCACCTAGTGCAG	3750 fluorescence intensity (a.u.)
AATGCAAGTCAATTCCAAATCCAACCAAAATTCCGCCGAACGGAGTCACCTAGTGCAG	22000 fluorescence intensity (a.u.)
GTCCACGCGGCGCGCCGCGGTTGACCCGCGTTGCCTCTCGCGGAGTCACCTAGTGCAG	3280 fluorescence intensity (a.u.)
AATGAAAACAAGTGAGAGCAATAATGCCACGTACGTACACCGGAGTCACCTAGTGCAG	9150 fluorescence intensity (a.u.)
GTTACGACTTATAACATTCCTTGTCCTGTACTTCTTCTTGCGGAGTCACCTAGTGCAG	3250 fluorescence intensity (a.u.)
CGTTTCTCGTCGCGTCACGCTATCACCCTTGACATCATCACGGAGTCACCTAGTGCAG	6710 fluorescence intensity (a.u.)
AGAGTACTTTTGGGGTTACAAGTCAACATGAGTCAACACTCGGAGTCACCTAGTGCAG	4180 fluorescence intensity (a.u.)
AAATCCTGAACAGTGGAGTTACCACAGGGATGTGCTGTCCCGGAGTCACCTAGTGCAG	3510 fluorescence intensity (a.u.)
CATGTGGTGCAGCGAGGTGACTTTGGATTCCTTCAAACGTCGGAGTCACCTAGTGCAG	3170 fluorescence intensity (a.u.)

Sequence	binding signal
GAATTTCCAAAGTTTAACCACCAGGTCATCATAAAACGAACGGAGTCACCTAGTGCAG	3290 fluorescence intensity (a.u.)
TTGACTGAACTGCCATGTGTATGCCACGTAGACCAAAACCCGGAGTCACCTAGTGCAG	11600 fluorescence intensity (a.u.)
CCACCAGCCCGGTGGGATCCCGCCACGTCAGCGTGACCCGCGGAGTCACCTAGTGCAG	22600 fluorescence intensity (a.u.)
TATGACCTTGAGTTACCGAAGTCTGCGTCGTTTTGTACTACGGAGTCACCTAGTGCAG	3210 fluorescence intensity (a.u.)
CCAACTCCCTTTCGACATCGATTCTTCTTATCCGCCTCCCCGGAGTCACCTAGTGCAG	3250 fluorescence intensity (a.u.)
CTTGACTCTTGAGCGAAGAATACGGTCACATGCATATTTGCGGAGTCACCTAGTGCAG	3950 fluorescence intensity (a.u.)
GATAACATGGCCTAGATGGATGAGTTAAACCAAAGCACCTCGGAGTCACCTAGTGCAG	3690 fluorescence intensity (a.u.)
TACTGCTGACACGTGGACGGCACTCCCAGATATTTGCGCTCGGAGTCACCTAGTGCAG	15800 fluorescence intensity (a.u.)
CGGGGTTGTCTTCACCTGCGACGCGGTGGTGCACGGTGGGCGGAGTCACCTAGTGCAG	3770 fluorescence intensity (a.u.)
TTATATATAGGGGAGGTTTTGTTTACCACGGTGTGCTTTGCGGAGTCACCTAGTGCAG	3960 fluorescence intensity (a.u.)
TCCTCTCCGACTCCGAGGCCACCGTGTGCATGCTCATGGACGGAGTCACCTAGTGCAG	4120 fluorescence intensity (a.u.)
GACGCTGACGACTTCACTCCACTCCACGCCCTCCTTCCCCCGGAGTCACCTAGTGCAG	3870 fluorescence intensity (a.u.)
AACAGCCACGTCCCGCCGCGCGTCGCACGTCCGCGCCACGCGGAGTCACCTAGTGCAG	6260 fluorescence intensity (a.u.)
TTCTCCTCTTCTCGCGCGGCTCGTTATATTCTCGTCATCACGGAGTCACCTAGTGCAG	4730 fluorescence intensity (a.u.)
CCGTCGTCGCTGGGATGCGGCGTTGACATGGACGAGTTCGCGGAGTCACCTAGTGCAG	3530 fluorescence intensity (a.u.)
ACCATTGCGTTGGCCATGATGACAGTCACCTCCATACCCGCGGAGTCACCTAGTGCAG	4120 fluorescence intensity (a.u.)
AAACAGCACGAATTCAATGTACAAATGATGTCATATAGTGCGGAGTCACCTAGTGCAG	7660 fluorescence intensity (a.u.)
CCATTGTTGTCATGAAGAATTGATATCTCAAGCAACCAAACGGAGTCACCTAGTGCAG	36000 fluorescence intensity (a.u.)
AATTATATAGATAAGTGCAGTACACGTAAGTACGTGACAGCGGAGTCACCTAGTGCAG	6720 fluorescence intensity (a.u.)
TGCGGCGGTTGGAGCGGGTGCTGCAGCGGCGAACACGACGCGGAGTCACCTAGTGCAG	3140 fluorescence intensity (a.u.)
GTTTCTTCTCCTTCTCCTCGTCGGCATCCTGGTCATCGTCCGGAGTCACCTAGTGCAG	7800 fluorescence intensity (a.u.)

Sequence	binding signal
TTTGCGAGTAAACTATTTACTCTTGGTGATGTGGATAAATCGGAGTCACCTAGTGCAG	6810 fluorescence intensity (a.u.)
GGCGGCGGTGATTCGGGGATGCGGCGCGGCGGGGAGGAGGCGGAGTCACCTAGTGCAG	3860 fluorescence intensity (a.u.)
GCCGTGCCGCCACGTTCCACGCCAACCTCGCCGGCCGCGCCGGAGTCACCTAGTGCAG	3360 fluorescence intensity (a.u.)
CCAAGGTAAAATATGATCTAAATCTACATTTTACAAACTTCGGAGTCACCTAGTGCAG	3240 fluorescence intensity (a.u.)
TTATACATCATCAGAGGAAATGCTGACTCCATTATTTGTGCGGAGTCACCTAGTGCAG	3870 fluorescence intensity (a.u.)
TTGGAAGCAAATAAAAGTACACGTCATGTATCCAAATATACGGAGTCACCTAGTGCAG	4730 fluorescence intensity (a.u.)
CGGACCACACACTTACACGTGGGTCCCAGCTAAACCACAGCGGAGTCACCTAGTGCAG	5850 fluorescence intensity (a.u.)
ACTAAATCCTCAACCACCTCATATGTTTATGTACCATCGACGGAGTCACCTAGTGCAG	3510 fluorescence intensity (a.u.)
TCCATTCCAGCCGCAGCGCGCGTTGACCCACCGCAATGCACGGAGTCACCTAGTGCAG	3250 fluorescence intensity (a.u.)
GAGAGCATGCACGCGCTGTCGTGGTGCCTCTCCAACGTGGCGGAGTCACCTAGTGCAG	7770 fluorescence intensity (a.u.)
ACCTCACGCCCCTCGTGCCGCATGTGCATACATACGTCTGCGGAGTCACCTAGTGCAG	4690 fluorescence intensity (a.u.)
CGGCCGGCGAGATAAGATAAGCAGCTAGCAGGGAGTGGCCCGGAGTCACCTAGTGCAG	3280 fluorescence intensity (a.u.)
TGTACACGTCATCTAAATATGACGTGGAAAGATTATGCATCGGAGTCACCTAGTGCAG	27000 fluorescence intensity (a.u.)
TCAACCGTATCTGACGCCTGCATTTCCTCTACCAGCCAAGCGGAGTCACCTAGTGCAG	4010 fluorescence intensity (a.u.)
TCGTTCGATTTCTTGGTCCATTCCTTGTCCGTAGTGTTCTCGGAGTCACCTAGTGCAG	3180 fluorescence intensity (a.u.)
TTCGACGTATTGCCCTCGTGCGGACCGCACCGTTTCCTTGCGGAGTCACCTAGTGCAG	18700 fluorescence intensity (a.u.)
GGCCCTAGCAACTTGCAAGTGGGGCGCTGACACTGCAACACGGAGTCACCTAGTGCAG	5640 fluorescence intensity (a.u.)
ATTTCATTTCACTCATCCCACATGACACATACGCGTAGGTCGGAGTCACCTAGTGCAG	3670 fluorescence intensity (a.u.)
TTGCTAATTCCACACGTCAGCTAGGACAAGTGAGCATCGCCGGAGTCACCTAGTGCAG	13100 fluorescence intensity (a.u.)
TACGGAGGATACGTACGTGACGCGTCGGAAACCTTACGGCCGGAGTCACCTAGTGCAG	7710 fluorescence intensity (a.u.)
ATTTTCTATAATTACGTATATGCCCCACACGAACAGTATTCGGAGTCACCTAGTGCAG	3700 fluorescence intensity (a.u.)
